# Experimental data taken from PMC6627374, “Effects of the Pentapeptide P33 on Memory and Synaptic Plasticity in APP/PS1 Transgenic Mice: A Novel Mechanism Presenting the Protein Fe65 as a Target” (International Journal of Molecular Sciences, 2019).
# Results are given in words; binding and its absence hold for the method and conditions named.
# B1: PPPPP (peptide)
# peptide: PPPPP
# Molecular target: T1, Fe65-WW domain (human) (UniProt O00213)
# T1 sequence (chain, acetyl (acetyl-Fe65-WW)): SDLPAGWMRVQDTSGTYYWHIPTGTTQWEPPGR
# Assay: condition: 1.056 mM PPPPP in the syringe, 83.5 μM Fe65-WW in the cell; ITC; Microcal VP-ITC; 10-uL portions of ligand (P33 1.006 mM or PPPPP 1.056 mM in the syringe) injected into the WW domain in the cell (Fe65-WW 83.5 uM or Pin1-WW 81.4 uM); degassed PBS pH 7.4, 310 K; dilution heats subtracted; repeated twice; both purified
binder,measurement,value
B1,binding,no binding
